The assay addresses T1, BD-AtD14 (Arabidopsis thaliana D14 fused to GAL4-BD) (Arabidopsis thaliana), Q9SQR3.
T1 chain: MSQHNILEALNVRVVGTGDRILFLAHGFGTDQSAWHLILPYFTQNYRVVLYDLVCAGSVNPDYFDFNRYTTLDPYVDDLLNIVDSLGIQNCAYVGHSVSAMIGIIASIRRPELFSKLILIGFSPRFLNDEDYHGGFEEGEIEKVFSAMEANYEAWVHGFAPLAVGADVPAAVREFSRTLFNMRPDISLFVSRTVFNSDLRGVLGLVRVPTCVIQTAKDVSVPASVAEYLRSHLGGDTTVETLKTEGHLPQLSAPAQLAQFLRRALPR
As to the kind of experiment: two-hybrid; yeast AH109; D14 proteins as GAL4-BD baits, MAX2/D3 and SMXL7/D53 as GAL4-AD preys; serial 10-fold dilutions spotted on selective medium (SD/-Leu/-Trp/-His/-Ala as printed) with 5 μM rac-GR24 or DMSO; 4 days at 30°C. Conditions: remark: other sources report otherwise.

No constants are given. Whether binding was seen depends on the method and setting. Some binding calls cover weakened binding; strength is not graded here. Tags and fused reporters may be left off the sequences shown.

B1: AD-AtMAX2 (Arabidopsis thaliana MORE AXILLARY GROWTH2 fused to GAL4-AD), Q9SIM9 1-693 (protein)
chain: MASTTLSDLPDVILSTISSLVSDSRARNSLSLVSHKFLALERSTRSHLTIRGNARDLSLVPDCFRSISHLDLSFLSPWGHTLLASLPIDHQNLLALRLKFCFPFVESLNVYTRSPSSLELLLPQWPRIRHIKLLRWHQRASQIPTGGDFVPIFEHCGGFLESLDLSNFYHWTEDLPPVLLRYADVAARLTRLDLLTASFTEGYKSSEIVSITKSCPNLKTFRVACTFDPRYFEFVGDETLSAVATSSPKLTLLHMVDTASLANPRAIPGTEAGDSAVTAGTLIEVFSGLPNLEELVLDVGKDVKHSGVALEALNSKCKKLRVLKLGQFQGVCSATEWRRLDGVALCGGLQSLSIKNSGDLTDMGLVAIGRGCCKLTTFEIQGCENVTVDGLRTMVSLRSKTLTDVRISCCKNLDTAASLKAIEPICDRIKRLHIDCVWSGSEDEEVEGRVETSEADHEEEDDGYERSQKRCKYSFEEEHCSTSDVNGFCSEDRVWEKLEYLSLWINVGEFLTPLPMTGLDDCPNLEEIRIKIEGDCRGKRRPAEPEFGLSCLALYPKLSKMQLDCGDTIGFALTAPPMQMDLSLWERFFLTGIGSLSLSELDYWPPQDRDVNQRSLSLPGAGLLQECLTLRKLFIHGTAHEHFMNFLLRIPNLRDVQLRADYYPAPENDMSTEMRVGSCSRFEDQLNSRNIID
With B1, the binding result is given as “binds”.

The values are drawn from publication PMC8632500, “Identification of Conserved and Divergent Strigolactone Receptors in Sugarcane Reveals a Key Residue Crucial for Plant Branching Control” (Frontiers in Plant Science, 2021).
